Assay results: patent US4532202A, “Coupler for photography” (Konishiroku Photo Industry Co., Ltd., priority 1982, dated 1985)

Test: Generation of stain (increase in blue density at unexposed portion)
Conditions: degree of increase in blue density at the unexposed portion of the sample subjected to light resistance test

SMILES | Stain [percentage]
CCCCCCCCCCCCC(Oc1ccc(NS(=O)(=O)CCCC)cc1)C(=O)Nc1cc(O)c(NC(=O)c2ccccc2)cc1Cl (stereo not shown) [Control coupler (F)] | 380
CCC(C)(C)c1ccc(OC(C(=O)Nc2cc(O)c(NC(=O)c3c(F)c(F)c(F)c(F)c3F)cc2Cl)C(C)C)c(C(C)(C)CC)c1 (stereo not drawn) [Exemplary compound (I-2), 2-(2,3,4,5,6-pentafluoro)benazmido-4-chloro-5-[α-(2,4-di-t-amylphenoxy)-β-methylbutaneamido]phenol] | 220
CCCCC(Oc1ccc(C(C)(C)CC)cc1C(C)(C)CC)C(=O)Nc1cc(O)c(NC(=O)c2c(F)c(F)c(F)c(F)c2F)cc1F (stereo not shown) [Control coupler (I)] | 520
CCC(C)C(Oc1ccc(C(C)(C)CC)cc1C(C)(C)CC)C(=O)Nc1cc(O)c(NC(=O)c2c(F)c(F)c(F)c(F)c2F)cc1Cl (stereo not shown) [Exemplary compound (I-4)] | 220
CCCCCCCCCCCCC(Oc1ccc(O)c(C(C)(C)C)c1)C(=O)Nc1ccc(NC(=O)c2ccccc2F)c(O)c1 (stereo not shown) [Control coupler (G)] | 390
CC(C)C(Oc1ccc(C(C)(C)C)cc1C(C)(C)C)C(=O)Nc1cc(O)c(NC(=O)c2c(F)c(F)c(F)c(F)c2F)cc1Cl (stereo not shown) [Exemplary compound (I-3)] | 240
CCCCCCCCCCCCCCCc1cccc(OC(C(=O)Nc2cc(O)c(NC(=O)c3c(F)c(F)c(F)c(F)c3F)cc2Cl)C(C)C)c1 (stereo not drawn) [Exemplary compound (I-10), 2-(2,3,4,5,6-pentafluoro)benzamido-4-chloro-5-[α-(m-pentadecylphenoxy)-β-methylbutaneamido]phenol] | 230
CCC(Oc1ccc(C(C)(C)CC)cc1C(C)(C)CC)C(=O)Nc1cc(Cl)c(C)c(Cl)c1O (stereo not shown) [Control coupler (E)] | 220
CCCCC(Oc1ccc(C(C)(C)CC)cc1C(C)(C)CC)C(=O)Nc1ccc(NC(=O)C(F)(F)C(F)(F)C(F)(F)F)c(O)c1 (stereo not shown) [Control coupler (H)] | 280
CCCCS(=O)(=O)Nc1ccc(OC(C(=O)Nc2cc(O)c(NC(=O)c3c(F)c(F)c(F)c(F)c3F)cc2Cl)C(C)C)cc1 (stereo not shown) [Exemplary compound (I-11)] | 240
